In PubChem BioAssay AID248 (DTP/NCI, 2004) one finds T/C and survivor count data, which are given here for 12 compounds.

The list is a part of this screen's results and no random one: it gathers some chemical classes. Not every dose and run of a compound is shown. T/C is the treated group as % of the vehicle group. Some entries give survivors of the animals treated and no T/C: the source holds a T/C of zero for them, seemingly a mark for toxic or unscored doses. Some survivor counts are full or nearly so, which does not show that the dose was tolerated: survival well below the control is almost never listed, so the zero probably covers shortened survival too. Survivors were counted at the toxicity check, usually on the fifth day, unless a day is given; later deaths do not show. Schedules are NCI's codes, read here as Q, the interval in days (D) or hours (H), X, the number of doses. For survival time, the PubChem record calls one and a half times the control and up active, and a quarter to a half above the control has no call in these data; cut-offs in other NCI protocols can differ. Some entries were tested several times; the results are listed from low to high. Some T/C values are marked as having no survivor count here; that says nothing about deaths at the dose. Some T/C values are followed by the survivors on the day toxicity was checked, most often the fifth; where neither a count nor a note follows, no animal had died by that day.

The experiment deals with L1210 leukemia ip in BDF1 mice, survival T/C. The experiment is described as follows: NCI In Vivo Anticancer Drug Screen. Data for tumor model L1210 Leukemia (intraperitoneal) in B6D2F1 (BDF1) mice. The conditions noted are these: higher T/C = longer survival.
Setting [1] is: T/C endpoint: mean survival time, dose: 50.0 mg/kg/injection, schedule: Q01DX009 (ip), vehicle: Klucel (hydroxypropylcellulose) (HPC).
Setting [2] is: T/C endpoint: mean survival time, dose: 100.0 mg/kg/injection, schedule: Q01DX009 (ip), vehicle: Klucel (hydroxypropylcellulose) (HPC).
[3] abbreviates: T/C endpoint: mean survival time, dose: 100.0 mg/kg/injection, schedule: Q04DX003 (ip), vehicle: Klucel (hydroxypropylcellulose) (HPC).
[4] abbreviates: T/C endpoint: mean survival time, dose: 200.0 mg/kg/injection, schedule: Q04DX003 (ip), vehicle: Klucel (hydroxypropylcellulose) (HPC).
[5] abbreviates: T/C endpoint: mean survival time, dose: 400.0 mg/kg/injection, schedule: Q04DX003 (ip), vehicle: Klucel (hydroxypropylcellulose) (HPC).
Where [6] appears, read: T/C endpoint: mean survival time, dose: 100.0 mg/kg/injection, schedule: Q04DX003 (ip), vehicle: saline with Tween-80.
Where [7] appears, read: T/C endpoint: mean survival time, dose: 200.0 mg/kg/injection, schedule: Q04DX003 (ip), vehicle: saline with Tween-80.
The mark [8] stands for this setting: T/C endpoint: mean survival time, dose: 400.0 mg/kg/injection, schedule: Q04DX003 (ip), vehicle: saline with Tween-80.

On to `CCN(CCCl)CCOc1ccc(Cl)cc1`, for which the T/C reads like this: (T/C endpoint: mean survival time, dose: 5.0 mg/kg/injection, schedule: Q04DX002 (ip), vehicle: saline) 89 % of control; (T/C endpoint: mean survival time, dose: 10.0 mg/kg/injection, schedule: Q04DX002 (ip), vehicle: saline) 107 % of control; (T/C endpoint: mean survival time, dose: 20.0 mg/kg/injection, schedule: Q04DX002 (ip), vehicle: saline) 97 and 100 % of control. Also, the survivor count is listed as 2 of 3 (T/C endpoint: mean survival time, dose: 40.0 mg/kg/injection, schedule: Q04DX002 (ip), vehicle: saline); 0 of 3 (T/C endpoint: mean survival time, dose: 80.0 mg/kg/injection, schedule: Q04DX002 (ip), vehicle: saline); 2 of 3 (T/C endpoint: mean survival time, dose: 100.0 mg/kg/injection, schedule: Q04DX002 (ip), vehicle: saline); 0 of 3 (T/C endpoint: mean survival time, dose: 200.0 mg/kg/injection, schedule: Q04DX002 (ip), vehicle: saline); 0 of 3 (T/C endpoint: mean survival time, dose: 400.0 mg/kg/injection, schedule: Q04DX002 (ip), vehicle: saline).

As to `O=P(Cl)(CCl)NC12CC3CC(CC(C3)C1)C2` (stereo unspecified), the T/C under setting [1] was 93 % of control [5 of 6 alive], the T/C under setting [3] is 100 % of control and the T/C under setting [4] is 93 % of control. Moreover, the survivor count by setting is: under setting [2], 0 of 6; (T/C endpoint: mean survival time, dose: 200.0 mg/kg/injection, schedule: Q01DX009 (ip), vehicle: Klucel (hydroxypropylcellulose) (HPC)) 1 of 6; under setting [5], 2 of 6.

On to `BrC1C[N-]C2CCCCC2C1.[C-]#N.[Cu+2]` (stereo unspecified), for which the T/C reads like this: (T/C endpoint: mean survival time, dose: 25.0 mg/kg/injection, schedule: Q01DX009 (ip), vehicle: Klucel (hydroxypropylcellulose) (HPC)) 92 % of control [survivor count not shown]; under setting [1], 90 % of control [survivor count not shown]; under setting [2], 94 % of control [survivor count not shown]; under setting [3], 96 % of control [survivor count not shown]; under setting [4], 93 % of control [survivor count not shown]; under setting [5], 95 % of control [survivor count not shown].

In the case of `COc1ccc(P(=S)(Cl)Cl)cc1`, the T/C reads like this: under setting [3], 89 % of control [5 of 6 alive]; under setting [4], 93 % of control [5 of 6 alive]; under setting [5], 93 % of control.

For `CON(C)CCCl`, the T/C was 93 % of control (T/C endpoint: mean survival time, dose: 100.0 mg/kg/injection, schedule: Q04DX003 (ip), vehicle: saline); 93 % of control (T/C endpoint: mean survival time, dose: 200.0 mg/kg/injection, schedule: Q04DX003 (ip), vehicle: saline); 88 % of control [4 of 6 alive] (T/C endpoint: mean survival time, dose: 400.0 mg/kg/injection, schedule: Q04DX003 (ip), vehicle: saline).

As for `O=C(c1ccc([N+](=O)[O-])cc1)N(CCCl)CCCl`, the T/C by setting is: (T/C endpoint: median survival time, dose: 100.0 mg/kg/injection, schedule: Q01DX009 (ip), vehicle: Klucel (hydroxypropylcellulose) (HPC)) 111 % of control; (T/C endpoint: median survival time, dose: 200.0 mg/kg/injection, schedule: Q01DX009 (ip), vehicle: Klucel (hydroxypropylcellulose) (HPC)) 109 % of control. Besides, the survivor count (T/C endpoint: median survival time, dose: 400.0 mg/kg/injection, schedule: Q01DX009 (ip), vehicle: Klucel (hydroxypropylcellulose) (HPC)) is given as 4 of 6.

On to `Cc1cc([N+](=O)[O-])ccc1[N+](=O)[O-]`, for which the T/C runs as follows: (T/C endpoint: mean survival time, dose: 25.0 mg/kg/injection, schedule: Q01DX009 (ip), vehicle: other) 87 % of control [survivor count not shown]; (T/C endpoint: mean survival time, dose: 25.0 mg/kg/injection, schedule: Q04DX003 (ip), vehicle: other) 101 % of control [survivor count not shown]; (T/C endpoint: mean survival time, dose: 50.0 mg/kg/injection, schedule: Q01DX009 (ip), vehicle: other) 91 % of control [survivor count not shown]; (T/C endpoint: mean survival time, dose: 50.0 mg/kg/injection, schedule: Q04DX003 (ip), vehicle: other) 97 % of control [survivor count not shown]; (T/C endpoint: mean survival time, dose: 100.0 mg/kg/injection, schedule: Q01DX009 (ip), vehicle: other) 96 % of control [survivor count not shown]; (T/C endpoint: mean survival time, dose: 100.0 mg/kg/injection, schedule: Q04DX003 (ip), vehicle: other) 102 % of control [survivor count not shown].

On to `[N-]=[N+]=NC(=O)c1cc(Cl)cc(C(=O)N=[N+]=[N-])n1`, for which the T/C (T/C endpoint: mean survival time, dose: 25.0 mg/kg/injection, schedule: Q01DX009 (ip), vehicle: saline with Tween-80) was 92 % of control [5 of 6 alive]; the T/C (T/C endpoint: mean survival time, dose: 25.0 mg/kg/injection, schedule: Q04DX003 (ip), vehicle: saline with Tween-80) was 90 % of control; the T/C (T/C endpoint: mean survival time, dose: 50.0 mg/kg/injection, schedule: Q01DX009 (ip), vehicle: saline with Tween-80) was 87 % of control [4 of 6 alive]; the T/C (T/C endpoint: mean survival time, dose: 50.0 mg/kg/injection, schedule: Q04DX003 (ip), vehicle: saline with Tween-80) was 89 % of control; the T/C under setting [6] was 97 % of control [4 of 6 alive]. The survivor count by setting is: (T/C endpoint: mean survival time, dose: 100.0 mg/kg/injection, schedule: Q01DX009 (ip), vehicle: saline with Tween-80) 0 of 6; under setting [6], 4 of 6; under setting [7], 3 of 6; under setting [8], 0 of 6.

Turning to `NCCSP(=O)(O)O`, the T/C runs as follows: (T/C endpoint: mean survival time, dose: 100.0 mg/kg/injection, schedule: Q01DX001 (ip), vehicle: saline) 102 % of control; (T/C endpoint: mean survival time, dose: 200.0 mg/kg/injection, schedule: Q01DX001 (ip), vehicle: saline) 98 % of control; (T/C endpoint: mean survival time, dose: 400.0 mg/kg/injection, schedule: Q01DX001 (ip), vehicle: saline) 98 % of control.

As to `CCCCOP(OCCCC)OCCCC`, the T/C reads like this: under setting [6], 96 % of control; under setting [7], 94 % of control; under setting [8], 100 % of control.

For `Cc1cc(/C=N/N(C)C)ccc1N(CCCl)CCCl`, the T/C reads like this: (T/C endpoint: mean survival time, dose: 25.0 mg/kg/injection, schedule: Q04DX002 (ip), vehicle: Klucel (hydroxypropylcellulose) (HPC)) 120 % of control; (T/C endpoint: mean survival time, dose: 50.0 mg/kg/injection, schedule: Q04DX002 (ip), vehicle: Klucel (hydroxypropylcellulose) (HPC)) 104 % of control; (T/C endpoint: mean survival time, dose: 100.0 mg/kg/injection, schedule: Q04DX002 (ip), vehicle: Klucel (hydroxypropylcellulose) (HPC)) 97 and 101 % of control. The survivor count (T/C endpoint: mean survival time, dose: 200.0 mg/kg/injection, schedule: Q04DX002 (ip), vehicle: Klucel (hydroxypropylcellulose) (HPC)) is on record as 1 of 3 and the survivor count (T/C endpoint: mean survival time, dose: 400.0 mg/kg/injection, schedule: Q04DX002 (ip), vehicle: Klucel (hydroxypropylcellulose) (HPC)) is 0 of 3.

Turning to `O=[N+]([O-])c1cc(N=[N+]([O-])c2cc([N+](=O)[O-])cc([N+](=O)[O-])c2)cc([N+](=O)[O-])c1`, the T/C is 91 [survivor count not shown] and 109 % of control [survivor count not shown] (T/C endpoint: mean survival time, dose: 44.4 mg/kg/injection, schedule: Q01DX001 (ip), vehicle: carboxymethylcellulose (CMC)); 90 [survivor count not shown] and 93 % of control [survivor count not shown] (T/C endpoint: mean survival time, dose: 66.7 mg/kg/injection, schedule: Q01DX001 (ip), vehicle: carboxymethylcellulose (CMC)); 91 [survivor count not shown], 93 [survivor count not shown], 169 % of control [survivor count not shown] (T/C endpoint: mean survival time, dose: 100.0 mg/kg/injection, schedule: Q01DX001 (ip), vehicle: carboxymethylcellulose (CMC)); 91 [survivor count not shown] and 98 % of control [survivor count not shown] (T/C endpoint: mean survival time, dose: 150.0 mg/kg/injection, schedule: Q01DX001 (ip), vehicle: carboxymethylcellulose (CMC)); 96 % of control [survivor count not shown] (T/C endpoint: mean survival time, dose: 200.0 mg/kg/injection, schedule: Q01DX001 (ip), vehicle: carboxymethylcellulose (CMC)); 91 % of control [survivor count not shown] (T/C endpoint: mean survival time, dose: 400.0 mg/kg/injection, schedule: Q01DX001 (ip), vehicle: carboxymethylcellulose (CMC)).
